PubChem BioAssay AID1224826 | NIAID | 2016
Assay: 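Genes that change LPS-induced Tnf promoter activity in mouse macrophages when knocked down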 (primary screen). Cell system: RAW264.7 G9 macrophages from mouse bearing reporters for p65 (GFP) and the Tnf promoter (mCherry). Reagent: siRNA pool against mouse genes, 100 nM. Duration: 16 h of LPS stimulation, after 2 days of siRNA transfection. Conditions: bacterial lipopolysaccharide (Salmonella minnesota R595), 10 ng/ml. Measured: 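Imaged Tnf reporter mCherry in nuclei, minus background, normalised per plate to the median and expressed as robust z-scores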. Reading the numbers: Tnf reporter robust z-score: higher = stronger Tnf promoter reporter signal after LPS; Tnf reporter intensity: higher = stronger Tnf promoter reporter signal. Call rule: 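a well counts as active at a score of -1.3 or below (Tlr4 knock-down control median) or above 3 (raised signal); controls and wells holding fewer than 50 cells are excluded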. Meaning of the calls: active = Tnf reporter clearly lowered or raised; inactive = no clear change in Tnf reporter.
Shown is one part, drawn at random, of about 17,000 reagents. Of all reagents, about 1,110 (6.6%) got an active call. 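Active means lowered or raised reporter signal; replicate intensities are raw and not normalised per plate.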 The numbers tell different reagents against one gene apart.

no.	Target gene	pool no.	Tnf reporter robust z-score	fewer than 50 cells in well	Tnf reporter intensity, replicate 1	Tnf reporter intensity, replicate 2	call
1	Lhcgr (luteinizing hormone/choriogonadotropin receptor)	1	0.27	enough cells in well	267	265	inactive
2	Nmb (neuromedin B)	1	-0.53	enough cells in well	176	167	inactive
3	Ctsf (cathepsin F)	1	-1.08	enough cells in well	146	132	inactive
4	Paics	1	-0.25	enough cells in well	215	171	inactive
5	Art4 (ADP-ribosyltransferase 4)	1	1.47	enough cells in well	295	205	inactive
6	Bet1 (Bet1 golgi vesicular membrane trafficking protein)	1	1.13	enough cells in well	162	214	inactive
7	Sfmbt2 (Scm-like with four mbt domains 2)	1	0.12	enough cells in well	88.3	123	inactive
8	Fam32a (family with sequence similarity 32, member A)	1	-0.74	enough cells in well	189	26.9	inactive
9	Itpkb (inositol 1,4,5-trisphosphate 3-kinase B)	1	-1.42	enough cells in well	95.5	89.8	active
10	Rprd1b (regulation of nuclear pre-mRNA domain containing 1B)	1	0.26	enough cells in well	269	77.3	inactive
11	Pmis2 (PMIS2 transmembrane protein)	1		fewer than 50 cells per well; well left out of calls	203	64.1	inactive
12	Il1rapl2 (interleukin 1 receptor accessory protein-like 2)	1	-0.4	enough cells in well	204	132	inactive
13	Plod3 (procollagen-lysine, 2-oxoglutarate 5-dioxygenase 3)	1	-0.29	enough cells in well	145	88.2	inactive
14	Nod1 (nucleotide-binding oligomerization domain containing 1)	1	-0.09	enough cells in well	120	185	inactive
15	Scrg1 (scrapie responsive gene 1)	1		fewer than 50 cells per well; well left out of calls	38.9	163	inactive
16	Tgm5 (transglutaminase 5)	1	4.23	enough cells in well	279	168	active
17	Ap3s2 (adaptor-related protein complex 3, sigma 2 subunit)	1	-0.73	enough cells in well	156	97.7	inactive
18	Psmb3 (proteasome (prosome, macropain) subunit, beta type 3)	1		fewer than 50 cells per well; well left out of calls	244	127	inactive
19	Retn (resistin)	1	2.98	enough cells in well	294	218	inactive
20	Zfp260 (zinc finger protein 260)	1	2.14	enough cells in well	207	223	inactive
21	Rgs6 (regulator of G-protein signaling 6)	1	0.94	enough cells in well	396	75.9	inactive
22	Sntb1 (syntrophin, basic 1)	1	1.17	enough cells in well	178	103	inactive
23	Cdkn2d (cyclin dependent kinase inhibitor 2D)	1	2.47	enough cells in well	378	273	inactive
24	Aqp2 (aquaporin 2)	1	0.33	enough cells in well	181	196	inactive
25	Mtfmt (mitochondrial methionyl-tRNA formyltransferase)	1		fewer than 50 cells per well; well left out of calls	184	73.6	inactive
26	9430019C24Rik (RIKEN cDNA 9430019C24 gene)	1	0.59	enough cells in well	228	214	inactive
27	Creb3l4 (cAMP responsive element binding protein 3-like 4)	1	2.64	enough cells in well	354	328	inactive
28	Fshr (follicle stimulating hormone receptor)	1	0.38	enough cells in well	206	398	inactive
29	Agr2 (anterior gradient 2)	1	-0.25	enough cells in well	173	187	inactive
30	Thada (thyroid adenoma associated)	1	-0.75	enough cells in well	118	126	inactive
31	Thada (thyroid adenoma associated)	2	2.45	enough cells in well	357	315	inactive
32	Eif2d (eukaryotic translation initiation factor 2D)	1	-0.04	enough cells in well	204	131	inactive
33	Xrcc1 (X-ray repair complementing 1)	1	0	enough cells in well	233	225	inactive
34	Oxld1 (oxidoreductase like domain containing 1)	1		fewer than 50 cells per well; well left out of calls	54	79.2	inactive
35	Ppif (peptidylprolyl isomerase F (cyclophilin F))	1	-0.73	enough cells in well	111	84.3	inactive
36	Vmn1r69 (vomeronasal 1 receptor 69)	1	-0.56	enough cells in well	97.1	80.5	inactive
37	Rbm38 (RNA binding motif protein 38)	1	-0.86	enough cells in well	83.6	98.2	inactive
38	Lrrc4c (leucine rich repeat containing 4C)	1	0.97	enough cells in well	228	261	inactive
39	Gng5 (G protein subunit gamma 5)	1	0.59	enough cells in well	300	193	inactive
40	Vmn1r-ps103 (vomeronasal 1 receptor, pseudogene 103)	1	0.44	enough cells in well	121	115	inactive
41	Slc6a12	1	-1.22	enough cells in well	64.8	53.8	inactive
42	Or8b50 (olfactory receptor family 8 subfamily B member 50)	1		fewer than 50 cells per well; well left out of calls	75.4	75.6	inactive
43	Ep400 (E1A binding protein p400)	1	-0.44	enough cells in well	237	99.2	inactive
44	Htra3 (HtrA serine peptidase 3)	1	-0.69	enough cells in well	144	138	inactive
45	Fancc (Fanconi anemia, complementation group C)	1	0.34	enough cells in well	295	212	inactive
46	Ms4a2 (membrane-spanning 4-domains, subfamily A, member 2)	1	-0.83	enough cells in well	187	66	inactive
47	Upp2 (uridine phosphorylase 2)	1	-0.13	enough cells in well	103	94.2	inactive
48	Trim59 (tripartite motif-containing 59)	1		fewer than 50 cells per well; well left out of calls	155	93.3	inactive
49	Ramp2 (receptor (calcitonin) activity modifying protein 2)	1	0.4	enough cells in well	371	218	inactive
50	Skint11 (selection and upkeep of intraepithelial T cells 11)	1	0.04	enough cells in well	200	127	inactive
51	Map1b (microtubule-associated protein 1B)	1	2.08	enough cells in well	499	308	inactive
52	Kcnj6 (potassium inwardly-rectifying channel, subfamily J, member 6)	1	0.08	enough cells in well	221	303	inactive
53	Dyrk3 (dual-specificity tyrosine phosphorylation regulated kinase 3)	1	0.51	enough cells in well	233	182	inactive
54	Abra (actin-binding Rho activating protein)	1	-0.2	enough cells in well	110	186	inactive
55	Nop56 (NOP56 ribonucleoprotein)	1	-0.55	enough cells in well	187	94.5	inactive
56	Ccnt2 (cyclin T2)	1	0.17	enough cells in well	274	206	inactive
57	Vmn1r78 (vomeronasal 1 receptor 78)	1	-1.44	enough cells in well	63.3	23.2	active
58	Otor (otoraplin)	1	0.61	enough cells in well	293	217	inactive
